Laboratory results as given in US5958407A, “Ileus treatment method” (The Regents of the Uinversity of California, priority 1998, dated 1999).
Part of at least one peptide drawing is inferred or uncertain, most often the ends. No end group written: not given here.

Test system: strips of rat proximal colon

In the case of SLIGRL-NH2 [AP, SLIGRL-NH2], the “time to recovery of spontaneous activity after washing” value (100 nM AP for 5 min, then washed extensively) is reported as 5.4 ± 0.34 min, the “inhibition of mean amplitude at highest concentration” value (30 μM AP) is reported as 49% and the “threshold for inhibition of mean amplitude of spontaneous contractions” value (colon strips (mucosa plus muscle)) is reported as 3 µM. The “effect on spontaneous contractions in the absence of the mucosa” value (colonic strips with mucosa removed) was “inhibited spontaneous contractions” and the “delay before inhibition of motility” value (trypsin at 1 μM, AP concentration not stated) was 15 ± 3 s.
